# Source: PubChem BioAssay AID493014 (National Center for Advancing Translational Sciences (NCATS), 2011)
# Hit rate of the full screen: of about 340,000 compounds, about 170 (0.05%) were called active. The shares of active, inactive and inconclusive entries below differ from those in the screen. Calls come from the whole dose curve; as a rule, active = well fitted inhibition curve with a large enough effect in the signal ratio, with a control signal flat (not every such curve was filed as active); inconclusive = small, poorly fitted or top-dose-only effect, or effect the other way, or a change in a side signal; inactive = flat fitted curve, though single readings scatter; the % refers to the signal ratio. Potencies of inconclusive entries are doubtful fits and often do not repeat.
# Assay: qHTS Assay to Find Inhibitors of Chronic Active B-Cell Receptor Signaling;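 for activity change, negative = inhibition: plate controls were basal doxycycline-induced cells for no effect and cells given 10 µM MG132 for full effect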
# Details: ABC-DLBCL IkBa-CBG/CBR reporter, luminescence ratio (green luciferase fused to IkBa over red control in TMD8 lymphoma cells), 4 h; activity change, negative = inhibition: at 46.1 µM (top of the series)
# Procedure, shortened: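 TMD8 ABC-DLBCL cells carrying doxycycline-inducible green luciferase fused to IkappaBalpha plus unfused red luciferase were exposed to compounds (up to 46 uM) for 4 hrs at 37C. Activity came from the overlap-corrected green/red luminescence ratio.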
# Potency is the fitted concentration of half-maximal effect.
Structure (SMILES),"activity change, negative = inhibition",Potency
Fc1ccccc1-n1cn[nH]c1=S,inconclusive: -18.5%,
CC1(C)CC(=O)c2c(O)c(-c3ccccc3)c(=O)n(-c3ccccc3)c2C1,inactive,
Cc1ccc(CNC(=O)[C@H](C)NC(=O)C2CCN(C(=O)[C@@H](N)CC(C)C)CC2)cc1,inconclusive: -23.1%,
Cc1cccc(N(C(=O)c2csnn2)C(C(=O)NCc2ccccc2)c2ccncc2)c1 (configuration not stated),inconclusive: -8.93%,
C[C@H](NC(=O)c1cc2cc(Cl)ccc2n1C)C(=O)N1CCC(C(=O)O)CC1,inconclusive: -2.58%,
CC(C)(O)c1cc2ccc(C#CCCN3C(=O)c4ccccc4C3=O)cc2c(=O)o1,inconclusive: -0.596%,
Cc1ccc(-c2nn(-c3ccc(F)cc3)cc2C(=O)NC2CCC(O)CC2)cc1 (configuration not stated),inconclusive: 1.03%,
COc1cccc2sc3cc(NCC[C@@H]4CCCN4C)ccc3c(=O)c12,inconclusive: -3.54%,
COc1ccc(C(=O)Nc2ccccc2C(=O)O)cc1NC(=O)C(c1ccccc1)c1ccccc1,,"inconclusive: 3.55 µM [falling, full curve]"
CCOc1ccc(OCc2ccc(C(=O)Nc3cccnc3)cc2)cc1,,"inconclusive: 18.4 µM [falling, partial curve]"
COc1cccc(NC(=O)c2cc(-c3cccnc3)nc3c(Cl)cccc23)c1,inactive,
C=CCNC(=O)C1CCN(S(=O)(=O)c2ccc(Br)cc2)CC1,inactive,
COc1ccccc1C(=O)Nc1nc2ccccc2[nH]1,inconclusive: 263%,
O=C(Nc1ccc(Cl)cn1)Nc1cccs1,inconclusive: -13.5%,
COC(=O)c1ccc(Nc2ncnc3c2cnn3-c2cccc(C)c2)cc1,inactive,
COc1cccc(CN(Cc2ccco2)C(c2ccc(F)cc2)c2nnnn2C(C)(C)C)c1 (configuration not stated),inactive,
Cc1cc(N2CCOCC2)nc(SCC(=O)c2ccccc2)n1,,"inconclusive: 22.4 µM [falling, partial curve]"
Cc1ccc(-c2ccc(/C=C(\C#N)C(=O)Nc3cc(C)nn3-c3ccccc3)o2)cc1,inconclusive: -25.7%,
COc1ccc(CCC(=O)NCc2ccccc2Cl)cc1OC,inconclusive: -1.49%,
O=C(NCc1ccccc1C(F)(F)F)C12CN(Cc3ccccc3)CC1C(c1ccc([N+](=O)[O-])cc1)=NO2 (configuration not stated),inactive,
O=C(CSc1ncnc2c1cnn2Cc1ccccc1)Nc1ccc2c(c1)OCCO2,inconclusive: 2.72%,

# Retrieved by compound from the entries so far, three records:
Structure (SMILES),"activity change, negative = inhibition",Potency
COc1ccc(CCC(=O)NCc2ccccc2Cl)cc1OC,inconclusive: -1.49%,
COc1ccccc1C(=O)Nc1nc2ccccc2[nH]1,inconclusive: 263%,
Cc1ccc(-c2ccc(/C=C(\C#N)C(=O)Nc3cc(C)nn3-c3ccccc3)o2)cc1,inconclusive: -25.7%,

# Continuation:

Structure (SMILES),"activity change, negative = inhibition",Potency
O=C(NCC(c1ccco1)N1CCc2ccccc2C1)C(=O)Nc1ccccc1F (configuration not stated),inconclusive: 0.301%,
CN1CCc2c(sc3nc(NCCO)n(-c4cccc(Cl)c4)c(=O)c23)C1,inconclusive: -0.515%,
Cc1cc(NC(=O)COc2coc(CN3CCN(c4ccc(F)cc4)CC3)cc2=O)no1,inactive,
CCCCn1c(=O)[nH]c2c(oc3ccccc32)c1=O,inconclusive: 2.65%,
Cc1ccc(C)n1-c1ccc(NC(=O)c2ccccc2)cc1,,"inconclusive: 23.1 µM [falling, partial curve, poor fit]"
CCOC(=O)Cc1csc(SCC(=O)NC2CCCC2)n1,inactive,
COc1cc(C(=O)NC2CC(C)(C)Cc3c2cnn3-c2ccccc2)cc(OC)c1OC (configuration not stated),inactive,
COC(=O)c1cc(=O)n(Cc2ccc3c(c2)OCO3)c(=Nc2ccc(F)c(Cl)c2)s1,inactive,
O=C(CN1C(=O)c2ccccc2S1(=O)=O)N1CCOCC1,inactive,
CCOC(=O)CN1C(=O)CC(c2ccccc2)C1=O (configuration not stated),inconclusive: -51%,
O=C(NCC1CCCO1)c1ccc(-c2ccccc2Cl)o1 (configuration not stated),,"inconclusive: 29.1 µM [falling, single point]"
COc1ccc(CNC(=O)C/C(C)=N/NC(=O)c2ccccc2OC)cc1,,"inconclusive: 0.316 µM [falling, full curve, poor fit]"
CCOC(=O)C1=CN(Cc2ccco2)S(=O)(=O)N(CC)C1c1ccc(F)c(Cl)c1 (configuration not stated),inconclusive: -4.77%,
Cc1nc2ccccc2nc1CSc1nnc(N)s1,inconclusive: -8.79%,
O=C(CCc1nnc2n(Cc3ccc(Cl)cc3)c(=O)c3ccccc3n12)NCCN1CCCC1,inconclusive: 6.44%,
CC1CCCN(C(=O)C(C)Sc2nc(-c3ccccc3)cc(C(F)(F)F)n2)C1 (configuration not stated),inconclusive: 7.34%,
CN1CCc2c(sc3c2C(=O)NC(c2cccs2)N3)C1 (configuration not stated),inactive,
CCN(CC)C(=O)Cn1cc(C(=O)C(=O)NCCc2c[nH]c3ccccc23)c2ccccc21,,"inconclusive: 1.41 µM [falling, partial curve, poor fit]"
CN(C)c1ccc(NC(=O)Cn2c(SCc3ccc(F)cc3)nc3cccnc32)cc1,inconclusive: -26.2%,
Brc1ccc2[nH]c3c(N4CCc5ccccc5C4)ncnc3c2c1,,"inconclusive: 2.91 µM [rising, single point]"
CCCc1cc(C(=O)NNC(=S)Nc2cccc(C)c2)cs1,inactive,

Structure (SMILES),"activity change, negative = inhibition",Potency
COc1ccc(-c2cc(CCC(=O)N3CCN(c4cc(C)ccc4C)CC3)[nH]n2)cc1,,"inconclusive: 20.6 µM [falling, partial curve, poor fit]"
OCCN1CCN(CC#CCn2c3ccccc3c3ccccc32)CC1,inconclusive: -5.1%,
COc1cccc(N2CCN(C(=O)CN3C(=O)NC(C)(c4ccc5ccccc5c4)C3=O)CC2)c1 (configuration not stated),inactive,
O=c1cc(-c2ccccc2)nc2nc(COc3ccccc3)[nH]n12,inconclusive: -4.66%,
O=C(c1cccc(C(=O)N2CCN(c3ccc(F)cc3)CC2)c1)N1CCN(c2ccc(F)cc2)CC1,,"inconclusive: 25.1 µM [falling, single point]"
O=C(O)CSCC(=O)N1CCN(Cc2ccc3c(c2)OCO3)CC1,inconclusive: 0.987%,
O=C(/C=C/c1cccc(Cl)c1)c1nc2ccccc2[nH]1,inconclusive: -23.3%,
CCCCCCOc1ccc(/C(C)=N/NC2=NCCN2)cc1,,"inconclusive: 35.5 µM [falling, partial curve, poor fit]"
CCOC(=O)CCc1c(C)c2c(C)nn(-c3ccccc3)c2[nH]c1=O,inactive,
Fc1ccc(-c2ccnn2-c2ccccc2)cc1,inconclusive: 8.05%,
Cc1ccc(CNC(=O)C(=O)NCC(c2cccs2)S(=O)(=O)c2cccs2)cc1 (configuration not stated),inconclusive: 9.43%,
NC(=O)c1ccccc1NC(=O)COC(=O)C1(c2ccccc2)CC1,inconclusive: -0.15%,
CCOC(=O)c1[nH]c2ccccc2c1NC(=O)c1ccc(Br)o1,inconclusive: 12.7%,
O=c1c(C(c2ccc(Br)cc2)c2c(O)nc3n(c2=O)CCS3)c(O)nc2n1CCS2,inactive,
CC(C)C(=O)Nc1ccc(NC(=O)c2ccc([N+](=O)[O-])cc2Cl)cc1,inconclusive: 2.73%,
CCN(CC)CCNC(=O)c1cc2cc(Br)ccc2s1,,"inconclusive: 17.8 µM [falling, single point]"
O=C(N/N=C/C(Br)=C/c1ccccc1)c1cc(-c2ccco2)[nH]n1,inconclusive: -16.6%,
COCCCNc1ncnc2c1cnn2-c1ccc(C)cc1C,inconclusive: 4.97%,
COc1cc(OC)cc(-c2sc3ccc(OC)cc3c2C#CCO)c1,,"inconclusive: 11.6 µM [falling, partial curve, poor fit]"
CCc1ccc(CNCCSc2nnnn2C)cc1,inconclusive: 13.4%,
N#C/C(=C\Nc1ccc2c(c1)OCCO2)c1nc(-c2ccccc2)cs1,inactive,

# Part of the list above in order of molar mass, high to low.
Structure (SMILES),"activity change, negative = inhibition",Potency
N#C/C(=C\Nc1ccc2c(c1)OCCO2)c1nc(-c2ccccc2)cs1,inactive,
OCCN1CCN(CC#CCn2c3ccccc3c3ccccc32)CC1,inconclusive: -5.1%,
O=c1cc(-c2ccccc2)nc2nc(COc3ccccc3)[nH]n12,inconclusive: -4.66%,

# (more compounds)

Structure (SMILES),"activity change, negative = inhibition",Potency
CCN1C(=NCCc2ccc(Br)cc2)N[C@@H](c2ccccc2)[C@H](C(=O)OC)[C@H]1C,inconclusive: -1.83%,"inconclusive: 0.0891 µM [falling, full curve, poor fit]"
CC1=C(C)CC(C(=O)NNC(=O)c2ccccc2O)C(C(=O)O)C1 (configuration not stated),,"inconclusive: 4.61 µM [falling, partial curve]"
COc1cc2cc(CN(CCN3CCOCC3)C(=O)Nc3ccc(F)cc3)c(=O)[nH]c2cc1OC,,"inconclusive: 0.501 µM [falling, full curve, poor fit]"
O=C(Nc1cccnc1Cl)c1ccc(Cl)cc1,inactive,
CC1=C(C(=O)OCCOC(C)C)C(c2cc3c(cc2Br)OCO3)C2=C(CCCC2=O)N1 (configuration not stated),inconclusive: 2.57%,
O=C(O)CNS(=O)(=O)c1ccc(F)cc1,inconclusive: 21.2%,
c1ccc2oc(-c3[nH]ncc3CN3CCC(N4CCSCC4)CC3)cc2c1,,"inconclusive: 3.16 µM [falling, full curve, poor fit]"
O=C(CC1Nc2cccc3cccc(c23)NC1=O)Nc1ccc(F)cc1 (configuration not stated),,"inconclusive: 3.98 µM [falling, partial curve, poor fit]"
COc1ccc(Cl)cc1-n1c(=S)sc2c(=O)[nH]c(SCC(=O)C(C)(C)C)nc21,inconclusive: -10.7%,
COc1ccc(C/C(C)=N/NS(=O)(=O)c2ccc(Br)cc2)cc1,inactive,
O=C1CC(N(CCc2ccccc2)C(=S)Nc2ccccc2)C(=O)N1c1ccc(F)cc1 (configuration not stated),inconclusive: -18%,
CCCCNC(=S)N1CCN(c2ccccc2Cl)CC1,inactive,
Cc1ccc(S(=O)(=O)N2CCSC2=Nc2ccccc2)cc1,inconclusive: -2.26%,
Cc1ccc(Oc2c(C=O)c3ccccc3n2C)cc1,inactive,
O=C(/C=C/c1ccccc1)NCC(=O)N/N=C/c1cccs1,inconclusive: 10.4%,
CC(Cc1cccs1)NC(=O)Nc1ccc([N+](=O)[O-])cc1 (configuration not stated),inactive,
O=C(COC(=O)c1c[nH]c(=O)[nH]c1=O)NCc1ccccc1,,"inconclusive: 1.03 µM [falling, full curve]"
Cc1ccnc(NC(=O)c2cccc(NC(=O)COc3ccccc3)c2)c1,,"inconclusive: 7.94 µM [falling, partial curve]"
